Results are given in words; binding and its absence hold for the method and conditions named. In cells and extracts the contact can be indirect. Some entries that bind do so weakly or less than the wild type.
Target: SF3B1 (human (endogenous in A549 and BZR-T33)) (UniProt O75533)
Assay: co-IP; anti-SF3B1 immunoprecipitation (anti-IgG as negative control) of extracts from control or RNF113A-depleted A549 or BZR-T33 cells, treated or not with Cisplatin, followed by anti-SF3B2 Western blot

Amino acid sequences for entries named in this document (tags omitted).
UniProt O75533: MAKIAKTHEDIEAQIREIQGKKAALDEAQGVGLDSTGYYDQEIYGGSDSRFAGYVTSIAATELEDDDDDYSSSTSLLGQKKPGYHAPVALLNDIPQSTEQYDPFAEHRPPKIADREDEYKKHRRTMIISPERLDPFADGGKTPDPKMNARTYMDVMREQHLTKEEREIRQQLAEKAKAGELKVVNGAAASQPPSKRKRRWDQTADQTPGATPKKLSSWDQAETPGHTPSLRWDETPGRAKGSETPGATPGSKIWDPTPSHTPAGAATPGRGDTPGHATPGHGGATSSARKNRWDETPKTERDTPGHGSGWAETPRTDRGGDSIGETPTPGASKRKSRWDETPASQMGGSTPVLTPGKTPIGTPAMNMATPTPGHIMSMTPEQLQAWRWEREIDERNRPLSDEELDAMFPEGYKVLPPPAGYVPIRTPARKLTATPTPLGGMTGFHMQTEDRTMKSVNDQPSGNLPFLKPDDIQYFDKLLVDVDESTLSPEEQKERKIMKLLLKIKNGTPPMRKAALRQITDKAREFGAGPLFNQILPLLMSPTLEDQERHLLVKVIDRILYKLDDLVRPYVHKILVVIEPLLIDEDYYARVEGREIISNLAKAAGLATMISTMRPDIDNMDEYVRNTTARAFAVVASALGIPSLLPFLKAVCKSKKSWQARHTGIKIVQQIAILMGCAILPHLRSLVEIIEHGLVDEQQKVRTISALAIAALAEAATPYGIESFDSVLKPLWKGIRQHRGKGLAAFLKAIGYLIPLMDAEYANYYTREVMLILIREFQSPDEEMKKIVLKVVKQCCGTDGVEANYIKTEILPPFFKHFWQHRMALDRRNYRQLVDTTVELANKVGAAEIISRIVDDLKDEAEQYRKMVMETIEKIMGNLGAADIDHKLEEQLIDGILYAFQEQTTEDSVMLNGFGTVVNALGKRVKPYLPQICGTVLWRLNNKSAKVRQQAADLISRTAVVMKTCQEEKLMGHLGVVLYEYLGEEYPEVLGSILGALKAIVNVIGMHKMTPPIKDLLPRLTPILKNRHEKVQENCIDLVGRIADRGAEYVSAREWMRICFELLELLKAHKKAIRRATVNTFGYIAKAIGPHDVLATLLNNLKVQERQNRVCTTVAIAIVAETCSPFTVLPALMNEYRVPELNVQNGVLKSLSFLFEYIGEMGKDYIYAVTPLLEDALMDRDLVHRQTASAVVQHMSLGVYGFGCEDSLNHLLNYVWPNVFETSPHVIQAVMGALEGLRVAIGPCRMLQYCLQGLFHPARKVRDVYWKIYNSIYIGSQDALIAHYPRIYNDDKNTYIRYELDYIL
UniProt Q13435: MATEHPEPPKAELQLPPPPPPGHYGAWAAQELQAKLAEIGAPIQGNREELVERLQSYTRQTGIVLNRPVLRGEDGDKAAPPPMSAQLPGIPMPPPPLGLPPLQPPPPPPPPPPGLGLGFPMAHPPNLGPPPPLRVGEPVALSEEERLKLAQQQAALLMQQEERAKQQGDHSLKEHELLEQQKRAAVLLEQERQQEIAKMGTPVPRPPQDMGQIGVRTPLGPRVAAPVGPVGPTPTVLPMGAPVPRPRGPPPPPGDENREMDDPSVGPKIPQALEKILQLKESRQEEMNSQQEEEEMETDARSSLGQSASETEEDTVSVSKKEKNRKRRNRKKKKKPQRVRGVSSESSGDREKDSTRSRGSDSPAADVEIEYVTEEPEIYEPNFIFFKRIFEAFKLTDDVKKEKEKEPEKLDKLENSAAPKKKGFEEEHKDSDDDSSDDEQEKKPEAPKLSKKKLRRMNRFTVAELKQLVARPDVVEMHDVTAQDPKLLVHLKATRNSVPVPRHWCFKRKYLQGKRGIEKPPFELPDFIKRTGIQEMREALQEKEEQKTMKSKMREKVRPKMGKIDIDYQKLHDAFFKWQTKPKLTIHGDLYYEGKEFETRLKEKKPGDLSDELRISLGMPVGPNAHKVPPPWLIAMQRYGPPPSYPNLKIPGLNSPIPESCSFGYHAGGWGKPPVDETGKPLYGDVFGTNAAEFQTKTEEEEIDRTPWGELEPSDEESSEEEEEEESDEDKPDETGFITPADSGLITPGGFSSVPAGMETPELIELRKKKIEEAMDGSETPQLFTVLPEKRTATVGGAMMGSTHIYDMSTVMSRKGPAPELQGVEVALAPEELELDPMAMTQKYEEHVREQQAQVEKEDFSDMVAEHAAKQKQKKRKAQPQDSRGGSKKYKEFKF

binding: binds
Substance: SF3B2 (from UniProt Q13435 1-895)

Reference: publication PMC7062854
